Assay results: patent US20240360238A1 (MAGENTA THERAPEUTICS, published 2024)
No constants are given. Whether binding was seen depends on the method and setting. Some results given as binding are weak or reduced against the parent protein; the word gives no strength.

Protein sequences, listed by entry. Tags and fused reporters are not part of them. Lines headed by an entry give the natural chain unless they say otherwise; changes in a name come on top. Chains listed by the source or under a name are the forms on record and can include a tag or linker. Residues count along the entry.
UniProt P10721, residues 26-524: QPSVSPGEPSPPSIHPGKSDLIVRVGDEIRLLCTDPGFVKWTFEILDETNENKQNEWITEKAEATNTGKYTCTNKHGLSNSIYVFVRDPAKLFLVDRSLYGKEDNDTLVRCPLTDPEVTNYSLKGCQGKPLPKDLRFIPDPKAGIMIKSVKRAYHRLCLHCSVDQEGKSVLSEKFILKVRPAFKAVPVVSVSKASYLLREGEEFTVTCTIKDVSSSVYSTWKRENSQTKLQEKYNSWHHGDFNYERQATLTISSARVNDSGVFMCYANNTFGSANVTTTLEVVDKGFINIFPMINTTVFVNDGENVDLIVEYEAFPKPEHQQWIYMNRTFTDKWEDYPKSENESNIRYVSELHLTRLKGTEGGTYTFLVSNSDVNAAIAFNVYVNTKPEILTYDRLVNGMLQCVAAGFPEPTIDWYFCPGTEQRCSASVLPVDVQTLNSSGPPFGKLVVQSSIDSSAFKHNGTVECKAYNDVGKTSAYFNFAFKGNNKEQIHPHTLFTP
purified rhesus CD117 ectodomain (F6V858, form named): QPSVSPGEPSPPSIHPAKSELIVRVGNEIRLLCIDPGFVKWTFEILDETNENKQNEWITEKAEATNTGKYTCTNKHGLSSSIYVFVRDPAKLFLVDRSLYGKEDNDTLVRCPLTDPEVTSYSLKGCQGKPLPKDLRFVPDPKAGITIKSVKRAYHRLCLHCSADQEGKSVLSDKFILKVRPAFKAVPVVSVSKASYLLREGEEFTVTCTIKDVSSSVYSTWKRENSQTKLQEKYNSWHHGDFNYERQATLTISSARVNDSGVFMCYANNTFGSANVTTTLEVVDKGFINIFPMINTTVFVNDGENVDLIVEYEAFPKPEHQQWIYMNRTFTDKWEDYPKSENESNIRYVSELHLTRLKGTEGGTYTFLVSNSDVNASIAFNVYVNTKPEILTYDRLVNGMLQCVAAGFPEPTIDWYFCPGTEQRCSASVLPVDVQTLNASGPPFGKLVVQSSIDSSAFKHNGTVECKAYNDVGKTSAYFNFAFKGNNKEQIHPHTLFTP

Tests used:
[1] = target: purified human CD117 ectodomain (R&D Systems #332-SR) (human) (UniProt P10721); test: BLI, IgG sensor-associated, human CD117 ectodomain in solution at 33.3 nM and 11 nM
[2] = target: T1, purified rhesus CD117 ectodomain (rhesus, UniProt F6V858 26-524); test: BLI, purified rhesus CD117 ectodomain
T1 construct: extracellular domain; also called rhesus antigen

[3] = target: T1, purified rhesus CD117 ectodomain; test: BLI, IgG sensor-associated, 100 nM rhesus CD117 ectodomain in solution

| Binder | binding [1] | binding [2] | binding [3] |
| --- | --- | --- | --- |
| HC-14/LC-14 (Ab14) (antibody, IgG1, V domains shown, Purified IgG; also called 014) VH: QVQLVQSGAAVKKPGESLKISCKGSGYRFTTYWIGWVRQMPGKGLEWMGIIYPGDSDTRYSPSFQGQVTISAGKSISTAYLQWSSLKASDTAMYYCARHGRGYNGYEGAFDIWGQGTMVTVSS VL: DIQLTQSPSSLSASVGDRVTITCRASQGISSFLAWYQQKPGKAPKLLIYDASTLQSGVPSRFSGSASGTDFTLTISSLQPEDFATYYCQQLNGYPLTFGGGTKVEIK | binds |  |  |
| HC-19/LC-19 (Ab19) (antibody, IgG1, V domains shown, From rat immunization/hybridoma; purified IgG in BLI; also called 019) VH: EVQLQESGPGLVKPSQSLSLTCSVTGYSISSNYRWNWIRKFPGNKVEWMGYINSAGSTNYNPSLKSRISMTRDTSKNQFFLQVNSVTTEDTATYYCARSLRGYITDYSGFFDYWGQGVMVTVSS VL: DIRMTQSPASLSASLGETVNIECLASEDIFSDLAWYQQKPGKSPQLLIYNANSLQNGVPSRFSGSGSGTRYSLKINSLQSEDVATYFCQQYKNYPLTFGSGTKLEIK |  | binds | binds |
| HC-25/LC-25 (Ab25) (antibody, IgG1, V domains shown, From rat immunization/hybridoma; purified IgG in BLI; also called 025) VH: QIQLVQSGPELKKPGESVKISCKASGYTFTDYAIHWVKQAPGQGLRWMAWINTETGKPTYADDFKGRFVFSLEASASTAHLQISNLKNEDTATFFCAGGSHWFAYWGQGTLVTVSS VL: SYELIQPPSASVTLENTVSITCSGDELSNKYAHWYQQKPDKTILEVIYNDSERPSGISDRFSGSSSGTTAILTIRDAQAEDEADYYCLSTFSDDDLPIFGGGTKLTVL |  | binds | binds |
| HC-22/LC-22 (Ab22) (antibody, IgG1, V domains shown, From rat immunization/hybridoma; purified IgG in BLI; also called 022) VH: QVQLKESGPGLVQPSQTLSLTCTVSGFSLTSYLVHWVRQPPGKTLEWVGLMWNDGDTSYNSALKSRLSISRDTSKSQVFLKMHSLQAEDTATYYCARESNLGFTYWGHGTLVTVSS VL: DIQMTQSPASLSASLEEIVTITCKASQGIDDDLSWYQQKPGKSPQLLIYDVTRLADGVPSRFSGSRSGTQYSLKISRPQVADSGIYYCLQSYSTPYTFGAGTKLELK |  | binds | binds |
| HC-17/LC-17 (Ab17) (antibody, IgG1, V domains shown, From rat immunization/hybridoma; purified IgG in BLI; also called 017) VH: QIQLVQSGPELRKPGESVKISCKASGYTFTDYAMYWVKQAPGKGLKWMGWINTYTGKPTYADDFKGRFVFSLEASANTANLQISNLKNEDTATYFCARARGLVDDYVMDAWGQGTSVTVSS VL: SYELIQPPSASVTLGNTVSLTCVGDELSKRYAQWYQQKPDKTIVSVIYKDSERPSGISDRFSGSSSGTTATLTIHGTLAEDEADYYCLSTYSDDNLPVFGGGTKLTVL |  | binds | binds |
| HC-21/LC-21 (Ab21) (antibody, IgG1, V domains shown, From rat immunization/hybridoma; purified IgG in BLI; also called 021) VH: QIQLVQSGPELKKPGESVKISCKASGYTFTDYAVYWVIQAPGKGLKWMGWINTYTGKPTYADDFKGRFVFSLETSASTANLQISNLKNEDTATYFCARGAGMTKDYVMDAWGRGVLVTVS VL: SYELIQPPSASVTLGNTVSLTCVGDELSKRYAQWYQQKPDKTIVSVIYKDSERPSDISDRFSGSSSGTTATLTIHGTLAEDEADYYCLSTYSDDNLPVFGGGTKLTVL |  | binds | binds |
| HC-27/LC-27 (Ab27) (antibody, IgG1, V domains shown, From rat immunization/hybridoma; purified IgG in BLI; also called 027) VH: EVQLVESGGGLVQPGRSMKLSCKASGFTFSNYDMAWVRQAPTRGLEWVASISYDGITAYYRDSVKGRFTISRENAKSTLYLQLVSLRSEDTATYYCTTEGGYVYSGPHYFDYWGQGVMVTVSS VL: DIQMTQSPSSMSVSLGDTVTITCRASQDVGIFVNWFQQKPGRSPRRMIYRATNLADGVPSRFSGSRSGSDYSLTISSLESEDVADYHCLQYDEFPRTFGGGTKLELK |  | binds | binds |
| HC-18/LC-18 (Ab18) (antibody, IgG1, V domains shown, From rat immunization/hybridoma; purified IgG in BLI; also called 018) VH: EVQLQQYGAELGKPGTSVRLSCKVSGYNIRNTYIHWVNQRPGEGLEWIGRIDPTNGNTISAEKFKTKATLTADTSSHTAYLQFSQLKSDDTAIYFCALNYEGYADYWGQGVMVTGSS VL: DIQMTQSPSFLSASVGDRVTINCKASQNINKYLNWYQQKVGEAPKRLIFKTNSLQTGIPSRFSGSGSGTDYTLTISSLQTEDVATYFCFQYNIGYTFGAGTKVELK |  | binds | binds |
| HC-20/LC-20 (Ab20) (antibody, IgG1, V domains shown, From rat immunization/hybridoma; purified IgG in BLI; also called 020) VH: EVQLQQYGAELGKPGTSVRLSCKLSGYKIRNTYIHWVNQRPGKGLEWIGRIDPANGNTIYAEKFKSKVTLTADTSSNTAYMQLSQLKSDDTALYFCAMNYEGYEDYWGQGVMVTVSS VL: DIQMTQSPSFLSASVGDSVTINCKASQNINKYLNWYQQKLGEAPKRLIHKTDSLQTGIPSRFSGSGSGTDYTLTISSLQPEDVATYFCFQYKSGFMFGAGTKLELK |  | binds | binds |
| HC-23/LC-23 (Ab23) (antibody, IgG1, V domains shown, From rat immunization/hybridoma; purified IgG in BLI; also called 023) VH: EVQLQQYGAELGKPGTSVRLSCKVSGYNIRNTYIHWVHQRPGEGLEWIGRIDPTNGNTISAEKFKSKATLTADTSSNTAYMQFSQLKSDDTAIYFCAMNYEGYADYWGQGVMVTVSS VL: DIQMTQSPSFLSASVGDRLTINCKASQNINKYLNWYQQKLGEAPKRLIFKTNSLQTGIPSRFSGSGSGTDYTLTISSLQPEDVATYFCFQYNIGFTFGAGTKLELK |  | binds | binds |
| HC-28/LC-28 (Ab28) (antibody, IgG1, V domains shown, From rat immunization/hybridoma; purified IgG in BLI; also called 028) VH: EVQLQQYGAELGKPGTSVRLSCKVSGYKIRNTYIHWVNQRPGKGLEWIGRIDPANGNTIYAEKFKSKVTLTADTSSNTAYMQLSQLKSDDTALYFCAMNYEGYEDYWGQGVMVTVSS VL: DIQMTQSPSFLSASVGDSVTINCKASQNINKYLNWYQQKLGEAPKRLIHKTNSLQPGFPSRFSGSGSGTDYTLTISSLQPEDVAAYFCFQYNSGFTFGAGTKLELK |  | binds | binds |
| HC-24/LC-24 (Ab24) (antibody, IgG1, V domains shown, From rat immunization/hybridoma; purified IgG in BLI; also called 024) VH: EVQLVESGGGLVQSGRSLKLSCAASGFTVSDYYMAWVRQAPTKGLEWVATINYDGSTTYHRDSVKGRFTISRDNAKSTLYLQMDSLRSEDTATYYCARHGDYGYHYGAYYFDYWGQGVMVTVSS VL: DIVLTQSPALAVSLGQRATISCRASQTVSLSGYNLIHWYQQRTGQQPKLLIYRASNLAPGIPARFSGSGSGTDFTLTISPVQSDDIATYYCQQSRESWTFGGGTNLEMK |  | binds | binds |
